The assay deals with T1, wild-type human NGAL (Neutrophil Gelatinase Associated Lipocalin) (human), P80188.
T1 chain: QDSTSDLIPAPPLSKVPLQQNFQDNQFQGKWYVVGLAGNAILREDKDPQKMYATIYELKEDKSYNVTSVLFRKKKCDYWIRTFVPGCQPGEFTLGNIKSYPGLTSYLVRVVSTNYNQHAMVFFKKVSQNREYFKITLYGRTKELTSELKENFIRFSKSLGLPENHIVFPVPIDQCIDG
Briefly: Western blot, homodimer formation. The conditions noted are these: remark: other sources report otherwise.

Results are given in words; binding and its absence hold for the method and conditions named. Some entries that bind do so weakly or less than the wild type.

B1: wild-type human NGAL (Neutrophil Gelatinase Associated Lipocalin), P80188 21-198 (ligand)
chain: QDSTSDLIPAPPLSKVPLQQNFQDNQFQGKWYVVGLAGNAILREDKDPQKMYATIYELKEDKSYNVTSVLFRKKKCDYWIRTFVPGCQPGEFTLGNIKSYPGLTSYLVRVVSTNYNQHAMVFFKKVSQNREYFKITLYGRTKELTSELKENFIRFSKSLGLPENHIVFPVPIDQCIDG
B1: the binding result is on record as “binds”.

The values above are taken from patent US12173037.
